We go through one compound from patent US4661516A, “Diaminocyclohexane platinum complexes” (Research Corporation, priority 1984, dated 1987).

Data set [1] deals with Wild type L1210 leukemic cells. Put plainly: In vitro cytotoxicity, wild type L1210 leukemic cells (L1210/0). The conditions noted are these: L1210, 72 hours incubation. In kind it is cell-based. How it is done: Four ml of cell suspension (10^5 cells/ml) are added to culture tubes and the appropriate concentration (0.01, 0.1, 1 or 10 μg/ml final concentration) of drug added to the culture tubes. After 72 hours of incubation, the cell concentration of control and experimental cultures are determined with the aid of a Coulter Counter® Model ZBf and the percent inhibition calculated. […]

The subject of data set [2] is L1210 leukemia cells (L1210/PDD). Put plainly: In vitro cytotoxicity / cross-resistance, L1210/PDD (L1210/DDP) cells resistant to cisdiamminedichloroplatinum(II). The conditions noted are these: 96 hours. Format: cell-based. How it is done: Four ml of cell suspension were added to culture tubes and the appropriate concentration (0.01, 0.1, 1 or 10 μg/ml final drug concentration) was added. After 96 hours the cell concentration of control and experimental cultures were calculated with the aid of a Coulter Counter® Model ZBf and the percent inhibition calculated.

The test system of data set [3] is Male albino mice. Put plainly: Acute toxicity, single intraperitoneal injection (Example 19). In kind it is in vivo. The conditions noted are these: single i.p. How it is done:
Male albino mice were administered a single intraperitoneal injection of the appropriate test compound and were observed daily for signs of toxicity and survival. Fourteen days after treatment all surviving mice were sacrified and the LD10, LD50 and LD90 were calculated.

As for `NC1CCCCC1N.O.O.O=C([O-])C1=CC(O)C(O)C(O)C1.O=C([O-])C1=CC(O)C(O)C(O)C1.[Pt+2]` (stereo not drawn) [Compound 10, cis-bis-shikimato(DACH)Pt(II).2H2 O], the ID50 in data set [1] stood at 2.5 µg/mL. The “ID50 L1210/PDD” value in data set [2] was 1.2 µg/mL. The DEATHS/TREATED in data set [3] (50 mg/kg) is 0/6; in data set [3] (100 mg/kg) it was 1/6; in data set [3] (125 mg/kg), 3/6; in data set [3] (160 mg/kg) it was 5/6; in data set [3] (200 mg/kg), 3/6. Besides, the “Calculated LD10” value in data set [3] (14 days) was 85 mg/kg. Further, in data set [3] (14 days), the “Calculated LD50” value is 130 mg/kg. The “Calculated LD90” value in data set [3] (14 days) is given as 205 mg/kg.
